Several values for one entry are separate records, joined by “and”; a condition that tells them apart may be missing. Equal values may be shown once. The structures given here were assigned with low confidence; some may be wrong.
How the values were obtained:
rat liver ACC = rat liver ACC (Rattus norvegicus, UniProt P11497); conditions: read-out: Rat liver ACC IC50; rat liver ACC radio enzymatic assay
recombinant human ACC2 = recombinant human ACC2 (Homo sapiens, UniProt O00763); experiment: Measurement of human ACC2 inhibition (recombinant hACC2 Transcreener ADP detection FP assay); format: biochemical; conditions: read-out: rhACC2 IC50

Chains of the proteins cited; added tags and fusions are not shown.
UniProt O00763, whole entry: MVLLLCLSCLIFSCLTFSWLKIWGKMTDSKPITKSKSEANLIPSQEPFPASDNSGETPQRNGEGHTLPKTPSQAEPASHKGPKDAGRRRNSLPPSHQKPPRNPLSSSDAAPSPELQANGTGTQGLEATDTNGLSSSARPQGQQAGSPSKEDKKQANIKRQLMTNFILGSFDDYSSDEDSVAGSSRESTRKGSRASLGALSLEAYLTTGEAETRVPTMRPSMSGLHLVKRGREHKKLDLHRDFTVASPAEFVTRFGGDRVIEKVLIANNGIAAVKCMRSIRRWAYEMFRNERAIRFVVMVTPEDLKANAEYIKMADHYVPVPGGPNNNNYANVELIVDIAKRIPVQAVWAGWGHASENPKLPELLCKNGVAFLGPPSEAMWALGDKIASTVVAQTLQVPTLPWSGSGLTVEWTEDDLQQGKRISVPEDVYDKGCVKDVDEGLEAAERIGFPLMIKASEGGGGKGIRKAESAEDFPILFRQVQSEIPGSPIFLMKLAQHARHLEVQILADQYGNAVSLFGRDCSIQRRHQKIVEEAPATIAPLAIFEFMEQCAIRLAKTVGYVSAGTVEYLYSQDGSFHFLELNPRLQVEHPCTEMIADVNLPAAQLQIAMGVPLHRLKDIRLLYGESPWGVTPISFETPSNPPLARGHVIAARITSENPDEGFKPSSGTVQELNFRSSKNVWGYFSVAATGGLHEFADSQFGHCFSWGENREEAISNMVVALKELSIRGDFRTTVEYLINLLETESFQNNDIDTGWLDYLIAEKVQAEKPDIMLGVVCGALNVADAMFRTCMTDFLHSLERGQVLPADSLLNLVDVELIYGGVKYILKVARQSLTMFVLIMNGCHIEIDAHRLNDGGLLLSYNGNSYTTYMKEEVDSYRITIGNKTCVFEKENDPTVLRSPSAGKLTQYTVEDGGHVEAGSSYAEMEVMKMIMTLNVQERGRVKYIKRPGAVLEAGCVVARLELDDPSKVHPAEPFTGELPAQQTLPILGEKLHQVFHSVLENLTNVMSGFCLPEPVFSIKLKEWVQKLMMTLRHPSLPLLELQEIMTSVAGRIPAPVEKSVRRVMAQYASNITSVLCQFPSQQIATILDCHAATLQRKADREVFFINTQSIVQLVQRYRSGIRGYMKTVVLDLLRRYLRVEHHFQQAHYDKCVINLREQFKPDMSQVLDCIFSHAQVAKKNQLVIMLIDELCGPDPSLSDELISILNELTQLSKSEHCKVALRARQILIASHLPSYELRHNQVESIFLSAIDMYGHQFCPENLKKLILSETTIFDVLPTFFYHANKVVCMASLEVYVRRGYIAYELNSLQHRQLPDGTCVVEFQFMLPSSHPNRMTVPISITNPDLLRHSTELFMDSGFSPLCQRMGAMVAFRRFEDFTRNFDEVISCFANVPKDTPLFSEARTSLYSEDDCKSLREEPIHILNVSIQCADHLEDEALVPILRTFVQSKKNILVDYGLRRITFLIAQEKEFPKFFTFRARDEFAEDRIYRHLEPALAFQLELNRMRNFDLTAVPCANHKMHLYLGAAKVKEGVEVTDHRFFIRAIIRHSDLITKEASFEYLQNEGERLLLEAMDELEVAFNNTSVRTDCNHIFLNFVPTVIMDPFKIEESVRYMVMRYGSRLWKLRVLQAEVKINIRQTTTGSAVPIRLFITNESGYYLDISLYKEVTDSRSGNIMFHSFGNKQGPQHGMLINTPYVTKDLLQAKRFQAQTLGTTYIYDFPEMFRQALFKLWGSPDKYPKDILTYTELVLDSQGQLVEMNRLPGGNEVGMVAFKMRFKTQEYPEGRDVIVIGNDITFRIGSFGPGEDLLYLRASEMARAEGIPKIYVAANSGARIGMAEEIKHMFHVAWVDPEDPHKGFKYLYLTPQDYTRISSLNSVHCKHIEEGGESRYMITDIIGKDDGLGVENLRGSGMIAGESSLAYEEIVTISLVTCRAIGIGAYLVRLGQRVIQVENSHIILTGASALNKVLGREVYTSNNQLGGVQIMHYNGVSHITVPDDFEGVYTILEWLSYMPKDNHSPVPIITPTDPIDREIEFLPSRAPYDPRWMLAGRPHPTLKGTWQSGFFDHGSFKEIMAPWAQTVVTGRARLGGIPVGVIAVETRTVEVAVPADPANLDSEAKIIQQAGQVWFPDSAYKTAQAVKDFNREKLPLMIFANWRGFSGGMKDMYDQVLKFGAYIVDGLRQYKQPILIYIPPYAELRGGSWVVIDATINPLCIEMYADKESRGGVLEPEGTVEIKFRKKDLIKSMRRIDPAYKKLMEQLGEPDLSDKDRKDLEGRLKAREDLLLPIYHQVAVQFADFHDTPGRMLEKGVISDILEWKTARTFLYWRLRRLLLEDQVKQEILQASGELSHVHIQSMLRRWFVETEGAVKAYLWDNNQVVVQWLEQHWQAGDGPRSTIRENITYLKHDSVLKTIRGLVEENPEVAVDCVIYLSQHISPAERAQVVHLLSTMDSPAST

SMILES | IC50 (rat liver ACC) | IC50 (recombinant human ACC2)
CCC(C)n1nc2c(c1C)OC1(CCN(C(=O)c3ccc4[nH]nc(C)c4c3)CC1)CC2=O (centres unmarked) [1.137] | 20 nM and 36 nM | 14 nM and 20 nM
CCn1nc2c(c1C)OC1(CCN(C(=O)c3ccc4c(C)n[nH]c4c3)CC1)CC2=O [2.025] | 131 nM | 161 nM
CCn1nc2c(c1C)OC1(CCN(C(=O)c3ccc4cnn(C)c4c3)CC1)CC2=O | 236 nM | 229 nM
CCn1cc2c(n1)C(=O)CC1(CCN(C(=O)c3ccc4c(C)n[nH]c4c3)CC1)O2 [2.024] | 263 nM | 113 nM
